Earlier results in publication PMC8473701.

Test: not told

log partition chloroform / water: 0.19 log10 | log partition hexadecane / water: -1.33 log10 | log partition octanol / water: 1.16 log10
SMILES: CC(C)CC(=O)O
